Here are results for 14 compounds from PubChem BioAssay (NCATS).

Where “and” joins values, the source holds several entries; their conditions need not be identical. Equal entries are not always repeated. The list shows a part of the results. These are further read-outs of the screen, such as a control signal, another cell line or another target. No call is given for them. The list favours compounds with an active or inconclusive main result. For part of these data: Potencies come from curve fits of mixed quality, noted in brackets.

Assay [1] can be described thus: qHTS Assay for Inhibitors of PDE-IV (AID 607). To be noted: HEK293 ACTOne CNG channel cells, membrane potential fluorescence; measured here: parental cell counter-screen. Put shortly:
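The readout is membrane depolarisation from a cAMP-sensing CNG channel, detected with a potential dye at ex 535/em 590. Cells were HEK293-derived (endogenous PDE-IV) at 1000 cells/well, titrated up to 22.9 uM final.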
In general terms: In qHTS, concentration-response curves come from the screen itself.

A short description of assay [2]: qHTS Assay for Lipid Storage Modulators (AID 1519). To be noted: Drosophila S3 cells, BODIPY lipid droplet/cell ratio, laser cytometry, cells loaded with oleic acid. Put shortly:
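Cells seeded at 5,000 per well were treated with compounds over a concentration series and loaded with oleic acid (400 uM, as added). Lipid droplet fluorescence (488 nm excitation, 500-530 nm channel) was read by laser-scanning cytometry and normalized to 20 uM Triacsin C.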

Assay [3] is described as follows: qHTS assay for small molecule antagonists of vitamin D receptor signaling (AID 588541). The following applies: HEK293T VDR-UAS-bla, beta-lactamase ratio, antagonist mode; measured here: W460 blue channel (cell viability).
Assay [4] in a line: qHTS assay for small molecule antagonists of retinoid X receptor alpha signaling (AID 588546).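 Note: cells stimulated with 9-cis-retinoic acid as agonist; % is set by controls: 0 for no effect and ±100 for the full control effect.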 The following applies: HEK293T RXRa-UAS-bla, beta-lactamase ratio, antagonist mode; measured here: W530 green channel, cytotoxicity proxy. Put shortly:
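Beta-lactamase reporter inhibition, read as CCF4 fluorescence ratio (ex 405, em 460/530 nm) after 2 h at RT. HEK293T UAS-bla cells, 2500/well, were stimulated with 9-cis-RA at 500 or 100 nM final alongside test compound for 18 h at 37 C.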

Assay [5] in a line: qHTS assay for small molecule antagonists of peroxisome proliferator-activated receptor gamma signaling (AID 588537). To be noted: HEK293 PPARg-UAS-bla, beta-lactamase ratio, antagonist mode; measured here: W460 blue channel. Put shortly: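 HEK293 cells, PPAR-gamma-UAS-bla, 3000/well. Pre-incubation 6-6.5 h, 37 C. Compound titration with rosiglitazone 50 nM final, 16 h. CCF4 dye, 2 h RT, dual-emission fluorescence.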

Assay [6] is described as follows: qHTS assay for small molecule agonists of retinoid X receptor alpha signaling (AID 588544). To be noted: HEK293T RXRa-UAS-bla, beta-lactamase reporter, 18 h; 530 nm emission.
Assay [7] can be described thus: qHTS assay for small molecule antagonists of peroxisome proliferator-activated receptor delta signaling (AID 588535).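 Note: cells co-treated with a PPAR-delta agonist as stimulator during compound exposure.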 To be noted: HEK293T PPARd-UAS-bla, beta-lactamase FRET ratio, 18 h; 460 nm channel. Put shortly:
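Compounds tested in titration on PPAR-delta-UAS-bla HEK293T cells grown in charcoal/dextran-stripped serum (2%); beta-lactamase activity read via CCF4 emission at 460 and 530 nm.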

The mark [8] stands for this setting: measured here: cell count channel max response.
[9] abbreviates: measured here: cell number channel AC50.
Setting [10] is: measured here: lipid (BODIPY) channel AC50.
Where [11] appears, read: measured here: lipid channel max response.

One may read the AC50 as the concentration at which the activity in the assay is half-maximal. Regarding `CN(CCOc1ccc(C[C@H](Nc2ccccc2C(=O)c2ccccc2)C(=O)O)cc1)c1ccccn1`, the concentration at half-maximal activity (AC50) in assay [1] was 12.6 µM [rising, partial curve, poor fit] and 15.8 µM [rising, partial curve, poor fit]; in assay [2] (setting [9]) it was 25.1 µM [rising, partial curve] and 316 nM [falling, full curve, poor fit]; in assay [2] (setting [10]), 31.6 µM [rising, partial curve] and 355 nM [falling, full curve, poor fit]; in assay [3], 7.08 µM [rising, full curve, poor fit]. Moreover, the max response in assay [2] (setting [8]) was 87% and -8.52%; in assay [2] (setting [11]) it was 111% and -8.88%; in assay [4] it was 11.4%.

As for `NC(=NC1C2CC3CC(C2)CC1C3)Nc1ccc(I)cc1` (stereo not given), the AC50 was 5.01 µM [rising, partial curve, poor fit] in assay [1]; 7.08 µM [rising, full curve, poor fit] in assay [2] (setting [9]); 10 µM [rising, partial curve, poor fit] in assay [2] (setting [10]). The max response is 35.8% in assay [2] (setting [8]) and 47.2% in assay [2] (setting [11]).

Regarding `COc1ccccc1CNc1nc(-c2cccc(NS(C)(=O)=O)c2)nc2ccccc12`, the half-maximal activity concentration (AC50) is 15.8 µM [rising, single point] in assay [1]; 0.794 µM [rising, full curve] in assay [2] (setting [9]); 0.631 µM [rising, full curve, poor fit] in assay [2] (setting [10]). The values for the max response in assay [2] (setting [8]) and in assay [2] (setting [11]) were 5.27% and 11.1%, respectively.

On to `O=C1CC2(CCCC2)CC(=O)N1CCCCNC[C@H]1COc2ccccc2O1`, for which the AC50 in assay [1] was 12.6 µM [rising, partial curve, poor fit]; in assay [2] (setting [9]), 14.1 µM [rising, partial curve, poor fit]; in assay [2] (setting [10]), 25.1 µM [rising, partial curve, poor fit]. Moreover, the max response in assay [2] (setting [8]) is 38.4%; in assay [2] (setting [11]), 46.5%.

Take `COc1ccc(CNc2ncncc2-c2ccccc2OC)c(OC)c1`: the AC50 in assay [1] was 10 µM [rising, single point]; in assay [2] (setting [9]) it was 2.51 µM [rising, single point]; in assay [2] (setting [10]), 2.24 µM [rising, partial curve, poor fit]. Also, the figures for the max response in assay [2] (setting [8]) and in assay [2] (setting [11]) were 18% and 24.4%, respectively.

As to `Cc1cccc([C@@H]2CN(C)CCc3c2cc(O)c(O)c3Cl)c1`, the AC50 in assay [1] was 20 µM [rising, single point]; in assay [2] (setting [9]), 15.8 µM [rising, partial curve, poor fit]; in assay [2] (setting [10]), 15.8 µM [rising, partial curve, poor fit]. Also, the values for the max response in assay [2] (setting [8]) and in assay [2] (setting [11]) were 60% and 57%, respectively.

As for `COc1ccc2oc(-c3ccccc3)c(OC)c(=O)c2c1`, the AC50 is 12.6 µM [rising, partial curve] in assay [1]; 2.51 µM [rising, full curve] in assay [2] (setting [9]); 3.55 µM [rising, partial curve] in assay [2] (setting [10]). The max response was 93.1% in assay [2] (setting [8]) and 122% in assay [2] (setting [11]).

With `COc1cccc(-c2cncnc2NCc2ccccc2OC)c1`, the AC50 in assay [1] was 10 µM [rising, single point]; in assay [2] (setting [9]), 12.6 µM [rising, partial curve, poor fit]; in assay [2] (setting [10]) it was 4.47 µM [rising, partial curve]. Further, the max response turned out to be 54.1% in assay [2] (setting [8]) and 61.3% in assay [2] (setting [11]).

In the case of `Cc1noc(C)c1C(=O)N1CCC2(CCCN(c3ncccn3)C2)CC1`, the half-maximal activity concentration (AC50) in assay [1] was 3.98 µM [rising, single point]; in assay [2] (setting [9]), 0.0282 µM [rising, full curve, poor fit]; in assay [2] (setting [10]), 0.0398 µM [rising, full curve, poor fit]. For the same compound, the max response in assay [2] (setting [8]) stood at 38.5%; in assay [2] (setting [11]), 51.1%.

Consider `Cc1cc(C(C)(C)CC(C)(C)C)ccc1OCCOCC[N+](C)(C)Cc1ccccc1`, for which the max response in assay [2] (setting [8]) is -55% and -45.3%; in assay [2] (setting [11]), -99.7% and -111%; in assay [6], 40.5%; in assay [4] it was 9.67%. Also, the concentration at half-maximal activity (AC50) in assay [2] (setting [9]) is 15.8 µM [falling, single point] and 20 µM [falling, partial curve]; in assay [2] (setting [10]), 15.8 µM [falling, partial curve, poor fit] and 10 µM [falling, partial curve]; in assay [5], 0.0316 µM [falling, full curve, poor fit].

`CC/C=C\C/C=C\C/C=C\CCCCCCCC(=O)O`: the max response in assay [2] (setting [8]) was 32.6%; in assay [2] (setting [11]), 38.8%; in assay [7], 76.4%; in assay [6], 37.7%. In addition, the AC50 was 14.1 µM [rising, partial curve, poor fit] in assay [2] (setting [9]) and 14.1 µM [rising, partial curve, poor fit] in assay [2] (setting [10]).

Take `CC1=NS(=O)(=O)c2cc(Cl)ccc2N1`: the half-maximal activity concentration (AC50) in assay [1] is 15.8 µM [rising, partial curve, poor fit]; in assay [2] (setting [9]), 28.2 µM [rising, partial curve, poor fit]; in assay [2] (setting [10]) it was 31.6 µM [rising, partial curve, poor fit]. In addition, the max response in assay [2] (setting [8]) is 83.2% and -17.7%; in assay [2] (setting [11]), 113% and -18.5%.

On to `NC(=O)N1c2ccccc2C=Cc2ccccc21`, for which the max response in assay [2] (setting [8]) is 27.8% and 48.8%; in assay [2] (setting [11]) it was 56.4% and 48.6%; in assay [7], 1.39%. Further, the concentration at half-maximal activity (AC50) in assay [2] (setting [9]) is 35.5 µM [rising, single point]; in assay [2] (setting [10]), 39.8 µM [rising, single point] and 35.5 µM [rising, single point].

Consider `Cc1cccc(Nc2cc(Cl)nc(SCC(=O)O)n2)c1C`, for which the AC50 in assay [1] is 15.8 µM [rising, single point]; in assay [2] (setting [9]), 6.31 µM [rising, full curve, poor fit]; in assay [2] (setting [10]), 7.08 µM [rising, full curve, poor fit] and 15.8 µM [rising, partial curve, poor fit]. Further, the max response in assay [2] (setting [8]) was 30.7% and 17.9%; in assay [2] (setting [11]) it was 47.5% and 38.9%.
